# In publication PMC7819943, “Rice protein-binding microarrays: a tool to detect cis-acting elements near promoter regions in rice”:
# The other results are listed elsewhere or left out.
# Target: T1, OsSMF1 (Oryza sativa, UniProt Q6ZLB0 1-436)
# T1 sequence: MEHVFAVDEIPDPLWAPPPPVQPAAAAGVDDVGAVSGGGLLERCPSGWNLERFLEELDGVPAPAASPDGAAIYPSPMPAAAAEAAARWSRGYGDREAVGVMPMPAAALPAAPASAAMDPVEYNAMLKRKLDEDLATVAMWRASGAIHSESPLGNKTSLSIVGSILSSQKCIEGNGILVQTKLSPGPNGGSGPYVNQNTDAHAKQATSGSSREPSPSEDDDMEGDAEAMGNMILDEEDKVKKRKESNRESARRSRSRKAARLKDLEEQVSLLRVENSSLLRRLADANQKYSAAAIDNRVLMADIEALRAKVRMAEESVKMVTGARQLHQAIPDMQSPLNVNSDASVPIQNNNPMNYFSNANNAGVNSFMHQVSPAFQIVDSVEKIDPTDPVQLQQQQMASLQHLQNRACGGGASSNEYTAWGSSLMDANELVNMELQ
# Assay: protein-binding microarray (RPBM); PBS, 2% BSA, 51.3 ng/ul salmon testes DNA, 50 uM zinc acetate, 200 nM TF, 25 C, 1 h; high values mean tight binding
# Conditions: protein: recombinant; tags: N-terminal polyhistidine and DsRed monomer fusion (pET32a); chain copies: 2; label: CyDye5-dUTP incorporated in the synthesized complementary strand; 3' TTTTT single-stranded linker to array surface; dsDNA, one strand shown
# Summary of the method: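 Binding signal here means per-feature fluorescence intensity in arbitrary units. The values were read on an Axon 4000B scanner after a custom Agilent array, double-stranded by primer extension with Cy5-dUTP, was incubated with 200 nM protein at 25 °C for 1 h in PBS with 2% BSA, salmon testes DNA and 50 µM zinc acetate, then washed. The proteins were transcription factors with an N-terminal polyhistidine tag and DsRed, expressed in E. coli BL21-CodonPlus and purified on Ni–NTA.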
row,Sequence,binding signal
1,CTCGCCGGCGCGGAGGTCCGCAGCCACACGTGGTGCCCGTCGGAGTCACCTAGTGCAG,4580 fluorescence intensity (a.u.)
2,GATAACAAACGCACGGTTCTCATCTTCCATCGTCACTCACCGGAGTCACCTAGTGCAG,4290 fluorescence intensity (a.u.)
3,CTAGCTACAGTCCCCGCTGCCACCTGTATGCCTACTACTTCGGAGTCACCTAGTGCAG,3890 fluorescence intensity (a.u.)
4,GGCGAGAGCAGCAACCACCGCCGATGTGGCGGGCGAGGCGCGGAGTCACCTAGTGCAG,4710 fluorescence intensity (a.u.)
5,TGTTTTGGAACTAAACAGGAGTGAGTGGGAATGTGACACCCGGAGTCACCTAGTGCAG,3280 fluorescence intensity (a.u.)
6,TTCAAAAGGTGCCATTGCTAGTCTCAATCTAGTCATTCGTCGGAGTCACCTAGTGCAG,3530 fluorescence intensity (a.u.)
7,AGGACCCGAGCTCGGCGGCGGCGGTGGCGTCAACGTCACACGGAGTCACCTAGTGCAG,3900 fluorescence intensity (a.u.)
8,TTTTCATTATGCTTTTGGTTTTATTGGTCAAGGGAATATCCGGAGTCACCTAGTGCAG,38600 fluorescence intensity (a.u.)
9,TTTAATAATAAAACGTGTCACAATAAAAGAAGTGATATTTCGGAGTCACCTAGTGCAG,4150 fluorescence intensity (a.u.)
10,CTCTGCCTCCCTCTCCCTCCCAAATCGCCGAGAAAAGAAGCGGAGTCACCTAGTGCAG,6670 fluorescence intensity (a.u.)
11,CCATTTCGTGCAAGCGAAGGCACCACCCGCCCTGACGCGGCGGAGTCACCTAGTGCAG,4450 fluorescence intensity (a.u.)
12,CAAGGCCCACTTAGCTGCTGACACATGGGCCCCGGCCCGCCGGAGTCACCTAGTGCAG,6160 fluorescence intensity (a.u.)
13,GATTCGCATTTCTTGTTGGAATCTGATTCGTATCCCTTCTCGGAGTCACCTAGTGCAG,3340 fluorescence intensity (a.u.)
14,CAATACACTGCGGACAACCAAGAATTGGCCGCCCAGTTCGCGGAGTCACCTAGTGCAG,38000 fluorescence intensity (a.u.)
15,CTGCTGCCAACCCATCCCCAACACGCAACATCTCTCTGCCCGGAGTCACCTAGTGCAG,4800 fluorescence intensity (a.u.)
16,TTGCCATGCATGTGATAAGCCTACATGTGGAGGAGTAGATCGGAGTCACCTAGTGCAG,3140 fluorescence intensity (a.u.)
17,AAGTACCTTGTACCTAGATTGGTCTGATACCTATAGGTACCGGAGTCACCTAGTGCAG,4620 fluorescence intensity (a.u.)
18,GAGGTAATTCCTCCTTTAATTTGTGTAAACAAATCTCAGCCGGAGTCACCTAGTGCAG,25600 fluorescence intensity (a.u.)
19,CCCTCCCTCCGCCTCCGCCCATCCAATTTCTTACCCCGTTCGGAGTCACCTAGTGCAG,3230 fluorescence intensity (a.u.)
20,ATAGGGGCACTTCTTATAACCTGGTGGCAGGTGTGGCTTGCGGAGTCACCTAGTGCAG,4490 fluorescence intensity (a.u.)
21,TCTCTCGTCGGCTCGTCGCCGGCGCGCCACCTCCGCCGCCCGGAGTCACCTAGTGCAG,3310 fluorescence intensity (a.u.)

# Taken from the listing (two entries):
row,Sequence,binding signal
12,CAAGGCCCACTTAGCTGCTGACACATGGGCCCCGGCCCGCCGGAGTCACCTAGTGCAG,6160 fluorescence intensity (a.u.)
13,GATTCGCATTTCTTGTTGGAATCTGATTCGTATCCCTTCTCGGAGTCACCTAGTGCAG,3340 fluorescence intensity (a.u.)

# Next part

row,Sequence,binding signal
1,AACAGTGAATCGTACACGTAGCTAGCAGCTAGCTATCTGCCGGAGTCACCTAGTGCAG,4790 fluorescence intensity (a.u.)
2,CTAACTACACACGCAGGGCAGGCACACAACACAGTCAGCTCGGAGTCACCTAGTGCAG,36700 fluorescence intensity (a.u.)
3,ACAAGACGCAATGTATGTATGACAAGTGGGTATATATATTCGGAGTCACCTAGTGCAG,3310 fluorescence intensity (a.u.)
4,GTATTCTAAGATAAAGGGATGATGTATATATGCGTTGTAGCGGAGTCACCTAGTGCAG,3680 fluorescence intensity (a.u.)
5,TTTAACACCATACAAGAGGAGGCTGGTGTCGGTGCTTGTCCGGAGTCACCTAGTGCAG,17600 fluorescence intensity (a.u.)
6,AGAGTTAAACAAATAAATAAACTAAATGAATTCGTACCTTCGGAGTCACCTAGTGCAG,19200 fluorescence intensity (a.u.)
7,GCGTTATGACACCGGCTGGCAATGACAAGACGGTTGATGACGGAGTCACCTAGTGCAG,3730 fluorescence intensity (a.u.)
8,GGTTAATTTGACATAAACAGCGTCAGAAATGTAGTTCATGCGGAGTCACCTAGTGCAG,3310 fluorescence intensity (a.u.)
9,TTTCTCCTCCTCGTTCTTAGGTGGCTTTTGCCATTGGATACGGAGTCACCTAGTGCAG,3760 fluorescence intensity (a.u.)
10,CTTACCAACAAATCTCTCAACCGTTTGATTTAATAATTATCGGAGTCACCTAGTGCAG,14900 fluorescence intensity (a.u.)
11,CAGTCTACAGTAAGTCACTTCCGCTTCCTTTTAGGCCTTCCGGAGTCACCTAGTGCAG,3330 fluorescence intensity (a.u.)
12,ACTCTGGGTTTCCGTGTCCAATTTTGACTGTCCGTCTTATCGGAGTCACCTAGTGCAG,3440 fluorescence intensity (a.u.)
13,AGGTGATGAAACGCATATAGGCTTACCTCGTAATGCAAGTCGGAGTCACCTAGTGCAG,3600 fluorescence intensity (a.u.)
14,TTGTATGCTTCTACTACTATACTAGTGTAATGCATTGCTACGGAGTCACCTAGTGCAG,3400 fluorescence intensity (a.u.)
15,GTCACAACAGGTGTTCAGCCGTGTGTCCGTGCGATGCAGCCGGAGTCACCTAGTGCAG,3830 fluorescence intensity (a.u.)
16,CTCGCCGAGCTGTAGACCTGTAGTTAGTCACCTGCAGGCTCGGAGTCACCTAGTGCAG,3230 fluorescence intensity (a.u.)
17,GCGGAGGTCGACCTTGGCGAGGTCGTCCACGTCCGGGTGCCGGAGTCACCTAGTGCAG,3340 fluorescence intensity (a.u.)
18,GAGCATCGGGTTGCTTCGGCTTCGGATCCGGCGGGCGGTGCGGAGTCACCTAGTGCAG,25400 fluorescence intensity (a.u.)
19,TGAGCATGAGCATATGCGTTGCAACATTGCTGACGCCATACGGAGTCACCTAGTGCAG,5340 fluorescence intensity (a.u.)
20,TGTTACGGGACGCATATGAGGGTGTGGGTAAGCCGTGCAACGGAGTCACCTAGTGCAG,3250 fluorescence intensity (a.u.)
21,ATGGTCAAGTGTCCTCAAATTATGGTCCTTTATATCTTCCCGGAGTCACCTAGTGCAG,3750 fluorescence intensity (a.u.)
